Reference: publication PMC6775114

Chains of the proteins cited; added tags and fusions are not shown. Residues count along the entry.
UniProt Q07866: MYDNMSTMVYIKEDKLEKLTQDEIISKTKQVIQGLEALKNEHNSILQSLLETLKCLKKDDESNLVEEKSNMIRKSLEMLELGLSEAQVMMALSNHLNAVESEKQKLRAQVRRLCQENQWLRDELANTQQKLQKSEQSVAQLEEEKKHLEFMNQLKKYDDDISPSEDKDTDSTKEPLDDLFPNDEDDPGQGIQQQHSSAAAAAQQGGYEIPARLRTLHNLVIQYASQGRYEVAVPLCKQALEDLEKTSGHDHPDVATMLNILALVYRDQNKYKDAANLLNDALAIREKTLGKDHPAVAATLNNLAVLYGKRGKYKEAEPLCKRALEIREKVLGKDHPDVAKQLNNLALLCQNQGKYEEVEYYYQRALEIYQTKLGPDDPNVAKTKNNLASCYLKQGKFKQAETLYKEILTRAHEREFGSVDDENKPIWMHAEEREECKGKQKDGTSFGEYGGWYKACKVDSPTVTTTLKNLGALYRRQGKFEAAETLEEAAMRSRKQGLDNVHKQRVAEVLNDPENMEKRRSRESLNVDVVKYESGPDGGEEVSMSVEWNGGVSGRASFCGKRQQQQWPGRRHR
UniProt P02545, residues 1-646: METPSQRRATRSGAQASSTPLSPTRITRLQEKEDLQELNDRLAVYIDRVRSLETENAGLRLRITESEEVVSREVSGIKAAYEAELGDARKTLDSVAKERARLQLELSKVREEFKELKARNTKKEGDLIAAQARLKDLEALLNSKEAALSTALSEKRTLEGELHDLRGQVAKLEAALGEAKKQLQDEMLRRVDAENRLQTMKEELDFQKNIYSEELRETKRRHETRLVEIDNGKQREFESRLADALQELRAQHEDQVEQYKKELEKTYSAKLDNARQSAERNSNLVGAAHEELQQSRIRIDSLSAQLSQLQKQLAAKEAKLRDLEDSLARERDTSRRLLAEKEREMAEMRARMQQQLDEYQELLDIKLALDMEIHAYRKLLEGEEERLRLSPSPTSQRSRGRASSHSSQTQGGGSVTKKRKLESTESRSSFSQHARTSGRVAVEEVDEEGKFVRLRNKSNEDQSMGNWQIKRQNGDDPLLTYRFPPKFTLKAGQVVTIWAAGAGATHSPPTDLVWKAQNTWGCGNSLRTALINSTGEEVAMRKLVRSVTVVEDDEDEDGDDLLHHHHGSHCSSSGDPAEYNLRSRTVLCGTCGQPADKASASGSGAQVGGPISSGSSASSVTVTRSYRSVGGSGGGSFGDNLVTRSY

Molecular target: GST-nesprin-1-alpha2 lacking the 18-amino-acid STAR domain (STARdel, aa1-842 bait protein) (human) (UniProt Q8NF91)
Experiment: pull-down; GST-tagged bait on glutathione beads, RIPA extract of human myotubes; pulled-down proteins probed by western blot; only the target purified

| binding | Substance |
| --- | --- |
| no binding | human kinesin light-chain (kinesin light chain 1, 72 kDa) (from UniProt Q07866 1-573) |
| no binding | lamin A/C (from UniProt P02545 1-646) |

These are yes or no findings as the source states them, for the method shown. In cells and extracts the contact can be indirect.
